Values quoted from earlier work, collected in US7297489B2, “Mutations in and genomic structure of HERG—a long QT syndrome gene” (University of Utah Research Foundation, priority 1998, dated 2007).

Test system: IKr of cardiac myocytes
Conditions: nM concentrations; cited from earlier work

## Cc1cccc(CCN2CCC(C(=O)c3ccc(NS(C)(=O)=O)cc3)CC2)n1 [E-4031]
  block of IKr: blocked
